The record followed here is patent US20110124690A1, “COMPOSITIONS AND METHODS FOR TREATING CANCER OR A NEUROTROPHIC DISORDER” (priority 2007, published 2011).

The series concerns human mammary carcinoma MX-1 cells. As to the kind of experiment: XTT/CCK-8 drug combination assay against MX-1 cell growth in vitro. Conditions: Table 4A; 72 hrs exposure. The format is cell-based. On the technique in general: Formazan colour is commonly taken as a measure of viable cells.

No dose or concentration is given here for some results.

Consider `C/C(=C\c1csc(C)n1)[C@@H]1C/C=C(/C(F)(F)F)C/C=C/[C@H](C)[C@H](O)[C@@H](C)C(=O)C(C)(C)[C@@H](O)CC(=O)O1` [Fludelone, reference compound], for which the “m (shape of dose-effect curve)” value is on record as 0.619.

With `C=C[C@@H](O)C#CC#CC[C@@H](O)[C@H](O)CCCCCCC` [panaxytriol], the “m (shape of dose-effect curve)” value is recorded as 2.600.
